# In PubChem BioAssay AID624405 (Broad Institute, 2012):
# Screen size: about 1,900 compounds; about 250 (13%) were called active. Not shown: some 4% with an inconclusive outcome.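 How the source made its calls: active means fitted curve reaches 40% rescue activity at or below the top valid dose, in every test run; inconclusive means test runs disagree, some active and some inactive; inactive means every run misses the threshold or moves the wrong way.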 The list shows a part of the results, in another mix than the full data. Potency and affinity values are given separately.
# Assay: rescue of simvastatin-induced ATP loss – cell-based, C2C12 myotubes, ATP luminescence, cherry pick, dose response (AID 624405);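 further: myotubes are challenged with simvastatin at 10 µM to lower ATP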
# Settings: 48 h, scaled: DMSO wells 0, geranylgeraniol wells 100; at 19.5 µM (top of the series) unless noted
row,SMILES,rescue activity (ATP increase)
1,C[C@H]1CN([C@@H](C)CO)S(=O)(=O)c2ccc(C#CC3CCCCC3)cc2O[C@H]1CN(C)C(=O)Cc1ccncc1,inactive: -18.7%
2,CC(C)COc1nc2ccccc2c(=O)n1OCC(=O)O,inactive: -5.81%
3,Cc1ccc(S(=O)(=O)N(C)C[C@@H]2Oc3ncc(C#Cc4cccc(F)c4)cc3C(=O)N([C@H](C)CO)C[C@@H]2C)cc1,inactive: 25.8%
4,COc1ccc(NC(=O)Nc2cccc3c2O[C@@H](CN(C)C(=O)Nc2cccc4ccccc24)[C@@H](C)CN([C@H](C)CO)C3=O)cc1,inactive: 4.56%
5,CCOC(=O)C1=C(N)c2ccccc2CC1C(C)C (configuration not stated),inactive: 21.5%
6,N#Cc1ccc(C(=O)NCC(c2ccco2)N2CCCCC2)cc1 (configuration not stated),inactive: 0.531%
7,Cc1ccc(N(C(=O)C2CCC(=O)N2)C2(C(=O)NC3CCCCC3)CCCCC2)cc1 (configuration not stated),inactive: -11.3%
8,C[C@@H]1CN([C@@H](C)CO)C(=O)c2cc(NC(=O)Cc3ccccc3)ccc2O[C@@H](C)CCCCO[C@@H]1CN(C)S(=O)(=O)c1ccc(F)cc1,inactive: -1.8%
9,COc1ccc(S(=O)(=O)Nc2ccc3c(c2)CC(=O)N([C@H](C)CO)C[C@H](C)[C@H](CN(C)Cc2ccc(Cl)c(Cl)c2)O3)cc1,inactive: 15.9%
10,C[C@@H]1CN([C@@H](C)CO)C(=O)c2cc(C#CC3CCCC3)cnc2O[C@H]1CN(C)C(=O)Nc1ccccc1,inactive: 22.4%
11,C=CCOc1c(Br)cc(CNn2nnnc2N)cc1OC,inactive: 29.5%
12,Cn1ncc(N=Cc2ccccc2O)c1C(=O)Nc1ccccc1,inactive: -12.8%
13,c1cncc(Oc2cccc(Oc3cccnc3)c2)c1,inactive: 13.7%
14,CS(=O)(=O)N(CC(=O)N/N=C/c1cccs1)c1cccc(Cl)c1Cl,inactive: 16.8%
15,O=C(CSc1nc(-c2ccccc2)c(-c2ccccc2)o1)Nc1nncs1,inactive: 5.06%
16,COc1cccc(S(=O)(=O)N(C)C[C@H]2OCc3ccccc3-c3c(n(C)c4ccccc34)C(=O)N([C@@H](C)CO)C[C@H]2C)c1,inactive: 18%
17,C[C@@H]1CN([C@H](C)CO)C(=O)Cc2cc(NC(=O)C3CCCCC3)ccc2O[C@H]1CN(C)Cc1ccc(-c2ccccc2)cc1,inactive: 34.9%
18,CCC(=O)Nc1c(C#N)c2nc3ccccc3nc2n1-c1ccccc1C,inactive: 18.3%
19,COc1ccc(NC(=O)Nc2ccc3c(c2)C(=O)N([C@@H](C)CO)C[C@@H](C)[C@H](CN(C)Cc2ccc(C(F)(F)F)cc2)OCCCC[C@H](C)O3)cc1,inactive: -26%
20,Cc1cccc(C)c1NS(=O)(=O)c1ccc(F)cc1,inactive: -2.51%
21,Cc1cccc(Nc2nnc(-c3ccc(C(=O)N4C[C@H]5C[C@H](C4)c4cccc(=O)n4C5)cc3)c3ccccc23)c1,inactive: 8.28%
22,Cc1cc(C)n(C(=O)c2ccc(S(=O)(=O)NCC3CCCO3)cc2)n1 (configuration not stated),inactive: 2.29%
23,Cc1ccc(C(=O)N2CCSCC2)cc1,inactive: -3.87%
24,O=C(OCC(=O)N1CCOCC1)c1ccccc1SCC(=O)N1CCCC1,inactive: -12.9%

row,SMILES,rescue activity (ATP increase)
1,CSc1cc(-c2ccc(Cl)cc2)c(C(=O)N2CCCC2)s1,inactive: 17.3%
2,O=C(COC(=O)C1CC2C=CC1C2)NCc1ccco1 (configuration not stated),inactive: -23.6%
3,CC(C)(CSc1ncccn1)NS(=O)(=O)c1ccccc1,inactive: -8.32%
4,Cc1cc(Cl)c(S(=O)(=O)Nc2ccc3c(c2)OCO3)cc1OCC(N)=O,inactive: 3.69%
5,O=c1cc(-c2ccncc2)oc2ccccc12,inactive: 24.2%
6,C[C@@H]1CN([C@H](C)CO)C(=O)c2cccc(NC(=O)Nc3ccc(F)cc3)c2O[C@H]1CN(C)Cc1ccccc1,inactive: 1.81%
7,COc1cc(C(N)=O)ccc1OCc1ccccc1,inactive: 8.22%
8,C[C@@H]1CN([C@@H](C)CO)C(=O)Cc2cc(NC(=O)Cc3cn(C)c4ccccc34)ccc2O[C@H]1CN(C)Cc1ccc(C(F)(F)F)cc1,inactive: 13.7%
9,N=c1n(-c2ccccc2)c(O)cc(=O)n1-c1ccccc1,inactive: -17.2%
10,O=C(Nc1cccs1)NC1CCCC1,inactive: 0.116%
11,C[C@H](CO)N1C[C@H](C)[C@H](CN(C)S(=O)(=O)c2cccs2)Oc2ccc(NC(=O)Cc3cn(C)c4ccccc34)cc2C1=O,inactive: -0.951%
12,C[C@H](CO)N1C[C@H](C)[C@@H](CN(C)C(=O)Nc2ccc(F)cc2)OCCCC[C@H](C)Oc2ccc(NC(=O)Cc3ccccc3)cc2C1=O,inactive: 17.8%
13,C[C@@H]1CN([C@H](C)CO)C(=O)Cc2cc(NS(=O)(=O)c3ccc(F)cc3)ccc2O[C@@H]1CN(C)Cc1ccc(Cl)c(Cl)c1,inactive: 22.2%
14,CCCCCn1c(N2CCC(C(N)=O)CC2)nc2c1c(=O)[nH]c(=O)n2C,inactive: 4.98%
15,C[C@@H]1CCCCO[C@H](CN(C)CC2CCCCC2)[C@@H](C)CN([C@H](C)CO)C(=O)c2cc(NS(=O)(=O)c3ccccc3)ccc2O1,inactive: -18.2% [at 21 µM]
16,C[C@@H]1CN([C@@H](C)CO)C(=O)c2cc(NS(=O)(=O)c3ccc(Cl)cc3)ccc2O[C@@H](C)CCCCO[C@@H]1CN(C)C(=O)Nc1cccc2ccccc12,inactive: 33.7%
17,C[C@@H]1CN([C@H](C)CO)C(=O)Cc2cc(NS(=O)(=O)c3cn(C)cn3)ccc2O[C@H]1CN(C)Cc1ccc(Cl)c(Cl)c1,inactive: 12.2% [at 21 µM]
18,CCOC(=O)c1cc(=O)n(Cc2ccccc2C)c2ccccc12,inactive: 20.2%
19,Nn1c(SCC(=O)Nc2ccc(F)cc2F)nnc1-c1cccnc1,inactive: -18.1%
20,C[C@@H](NC(=O)C[C@@H]1CC[C@@H]2[C@H](COC[C@H](O)CN2Cc2ccc(C(F)(F)F)cc2)O1)c1ccccc1,inactive: 32%
21,COc1ccc2[nH]cc(C(=O)CNc3nc(C)cs3)c2c1,inactive: 13.8%
22,CCOc1cccc(CNc2ccc(O)cc2)c1OCc1ccccc1Cl,inactive: 48%
23,OCC[C@H]1C[C@@H](O)[C@H](O)[C@@]2(Cc3ccccc3O2)O1,inactive: -43.1%

# 2 records drawn at random from those above, as already listed:
row,SMILES,rescue activity (ATP increase)
21,COc1ccc2[nH]cc(C(=O)CNc3nc(C)cs3)c2c1,inactive: 13.8%
1,C[C@H]1CN([C@@H](C)CO)S(=O)(=O)c2ccc(C#CC3CCCCC3)cc2O[C@H]1CN(C)C(=O)Cc1ccncc1,inactive: -18.7%
